Measurements published in PMC10163288.
This is one part of the list.

B1: il10ra_site1_sap_19_mot_65b8060e20531850bca9f2e11f97d954_0001_af2_000000137_0001_17_31_H_._HHH_b1_04841_0001_0000400042_0000001_1_0001 (protein)
chain: SSSSSSDELEELLEEAKELLERGDPREANKVLQKAVRLAHQNSDEETLQELWRLALESSSSSSSS
B2: il10ra_site1_sap_17_mot_HHH_b2_02934_af2_000000003_0001_43_57_H_._HHH_b1_01533_0001_0000300012_0000001_0_0001 (protein)
chain: SSSSDELTREVYELSRKAVELDSDGNEEEARKVIKEAEEIAEEINNPLLEHQLRFLEEILNSSSS
B3: il10ra_site1_sap_17_mot_HHH_b2_05972_af2_000000208_0001_1_16_H_._HHH_b2_02653_af2_0001_0000300007_0000001_0_0001_af2pred_0001 (protein)
chain: SSSSSSEAFREILELIREALEIDDPEEARELIEQARELAEENNDELLRRLIELVERELNSSSSSS
B4: il10ra_site1_sap_17_mot_HHH_b1_06914_000000280_0001_1_18_H_._HHH_b2_08155_0001_0000100009_0000001_0_0001 (protein)
chain: SSSSDEANERVWELLREALHIDDPEEAREVVEEAAEIAEERNNRVLLHNIRFLLRQLEKGSSSSS
B5: il10ra_site1_sap_25_mot_HHH_b2_05761_af2_000000185_0001_1_18_H_._HHH_b1_05595_af2_0001_0000200006_0000001_0_0001 (protein)
chain: SSSSDEDERYVELSLRFAEWLLKEGDPEAAKRILEAAREIAERANNEELREELEELLEKIGSSSS
B6: il10ra_site1_normal_mot_49468d6c54d8157f7969f91124172a68_0001_af2_000000173_0001_37_51_H_._HHH_b1_04887_af2_0001_0000100004_0000002_0_af2pred_dldesign_0_af2pred (protein)
chain: SSSSSAERAAAVHKAEVAFELAKASNNPNALAALRDYVTELYEKTGDPRLKEILAELDKALSSSS
B7: il10ra_site1_normal_mot_HHH_b1_02397_af2_000000085_0001_39_57_H_._HHH_b1_07134_af2_0001_0000100009_0000001_0 (protein)
chain: SSSSDEEQEELEELVRLLEELLKEGDQERFARTAQRALRIAFRLRDPEALQALWELVKKFASSSS
B8: il10ra_site1_sap_23_mot_HHH_b2_06321_af2_000000133_0001_42_55_H_._HHH_b2_05427_af2_0001_0000400018_0000001_0_0001 (protein)
chain: SSSSDELREEVFELSEEAAKLHHEGDEEEAERVLEEAEELAREGGDRLFLMQVEFILRKISSSSS
B9: il10ra_site1_sap_16_mot_HHH_b2_06979_000000158_0001_42_57_H_._HHH_b1_00759_0001_0000400027_0000001_0_0001 (protein)
chain: SSSSSSTKREEIYELLQEAAEIDDPEERERLLERAEELAEEAGDRVLLIIARFIRERGSSSSSSS
B10: il10ra_site1_sap_23_mot_HHH_b1_06174_af2_000000107_0001_40_57_H_._HHH_b1_02529_0001_0000200009_0000001_0_0001 (protein)
chain: DHLFVWQLRFAVERGNLEAVLEKLAEMAKRAGDPERLKAVEIAIELLRKGVPPEEVVEIFEELLR
B11: il10ra_site1_normal_mot_HHH_b2_00837_af2_000000287_0001_40_54_H_._HHH_b1_03367_af2_0001_0000100002_0000002_0 (protein)
chain: SSSSDEEEEELEKLLEELEKLVEEGDPERVARVAAEIARLAFRLNDPEVLRRAWELVRAVKSSSS
B12: il10ra_site1_sap_22_mot_HHH_b1_02397_af2_000000085_0001_39_57_H_._HHH_b2_02441_0001_0000100003_0000001_0_0001_af2pred_0001 (protein)
chain: SSSSDEERVLRLLIEALKLAFNGDPEEAEKLLEEAERIAEESNDERLEEAIEQAANIVKSASSSS
B13: il10ra_site1_sap_26_mot_HHH_b1_02665_000000293_0001_1_18_H_._HHH_b1_05149_af2_0001_0000500014_0000001_1_0001_af2pred_0001 (protein)
chain: SSPEEAEKLLREAEELAEEQNDERAREAVEILKRLLKVAKELNDEFAVELVERSARIILENLQRS
B14: il10ra_site1_normal_mot_HHH_b1_03333_000000091_0001_1_17_H_._HHH_b2_03837_af2_0001_0000500026_0000001_0 (protein)
chain: SSSSDFYEEVKELIEKAAQLQREGDEEKVEELLERLEELAEEFNSPVVEASVRALRLALRSSSSS
B15: il10ra_site1_normal_mot_HHH_b2_03568_000000058_0001_1_19_H_._HHH_b2_07674_0001_0000200018_0000002_0 (protein)
chain: SSSSSDESYEIVRKAIEEAIELEREGNPEEAKKVLEEALKELEELNDEVTRFSLELLLRQLSSSS
B16: il10ra_site1_normal_mot_HHH_b1_08697_af2_000000298_0001_1_18_H_._HHH_b2_02739_0001_0000300015_0000001_0 (protein)
chain: SSSSDKERRAARFWLRLFKQATDPRELKLIFRALENLAKVANDPEIEEILEEVEELLEQLSSSSS
B17: il10ra_site1_sap_20_mot_HHH_b1_06837_000000150_0001_20_37_H_._HHH_b1_02062_0001_0000500034_0000001_0_0001 (protein)
chain: SSSSDEEVRERAREIYERLQELIEEGDEERVQKLMQELVELANKGNDIEAARLATEIVKLSSSSS
B18: il10ra_site1_normal_mot_HHH_b2_05548_000000224_0001_41_54_H_._HHH_b1_07835_0001_0000100002_0000002_0_af2pred_0001 (protein)
chain: SSSSSDEEVEQLLEEAERLLKEGNPEEAAKVVAKAAELALELGNVELIKLVVELLRLIANSSSSS
B19: il10ra_site1_normal_mot_HHH_b2_08186_000000021_0001_43_56_H_._HHH_b1_06983_af2_0001_0000300013_0000001_0 (protein)
chain: SSSSDLEERVEELLERIEELLEEGNPREAVQLIQEAVRLAFEANNAELLRRLWELLREAAGSSSS
B20: il10ra_site1_sap_16_mot_HHH_b2_03328_af2_000000127_0001_1_19_H_._HHH_b2_02243_0001_0000100001_0000001_0_0001 (protein)
chain: SSSSSTQELYELLRRIVELDHEGDEEEARKVLEEAEELAEELGNVAIKMQLEFLRKILEKSSSSS
B21: il10ra_site1_sap_19_mot_HHH_b1_07743_af2_000000164_0001_42_55_H_._HHH_eva_0456_af2_0001_0000400013_0000001_0_0001_af2pred_0001 (protein)
chain: SSSSDMAEREHERAEQNLRHLVEAGDPEKVKLFVKLVKSILEELGNPELVEELEKLLEELNSSSS
B22: il10ra_site1_normal_mot_HHH_b1_05326_000000242_0001_1_20_H_._HHH_b2_06441_af2_0001_0000200013_0000001_0 (protein)
chain: SSSSSDEKEEALRLSLEAFRLLLRGDREQAEEVLKEALRLAEELGNERLARVIRDLLQAISSSSS
B23: il10ra_site1_normal_mot_HHH_b2_05686_000000041_0001_1_18_H_._HHH_b1_03447_0001_0000100002_0000003_0 (protein)
chain: SSSSTTAERSIEFALELAEELLELGNPEAAELILRQAREAAKAAENPELLRELEELLEEIRSSSS
B24: il10ra_site1_sap_18_mot_HHH_b2_08144_af2_000000046_0001_38_52_H_._HHH_b2_06268_0001_0000100001_0000003_0_0001 (protein)
chain: SSSSSEAFELARRAIEELIELAEEGDPEKVEELAEEVAERLEELGNQLAARQIKYLAKVELSSSS

The binders below were run against il10ra, Q13651 (assay: yeast display titration).

Apparent Kd, inactive:
B1 no binding seen, B2 no binding seen, B3 no binding seen, B4 no binding seen, B5 no binding seen, B6 no binding seen, B7 no binding seen, B8 no binding seen, B9 no binding seen, B10 no binding seen, B11 no binding seen, B12 no binding seen, B13 no binding seen, B14 no binding seen, B15 no binding seen, B16 no binding seen, B17 no binding seen, B18 no binding seen, B19 no binding seen, B20 no binding seen, B21 no binding seen, B22 no binding seen, B23 no binding seen, B24 no binding seen
